Test results as given in PMC9049301.
Results are given in words; binding and its absence hold for the method and conditions named. In cells and extracts the contact can be indirect. Some entries that bind do so weakly or less than the wild type.

Amino acid sequences for entries named in this document (tags omitted).
UniProt Q9BQA1: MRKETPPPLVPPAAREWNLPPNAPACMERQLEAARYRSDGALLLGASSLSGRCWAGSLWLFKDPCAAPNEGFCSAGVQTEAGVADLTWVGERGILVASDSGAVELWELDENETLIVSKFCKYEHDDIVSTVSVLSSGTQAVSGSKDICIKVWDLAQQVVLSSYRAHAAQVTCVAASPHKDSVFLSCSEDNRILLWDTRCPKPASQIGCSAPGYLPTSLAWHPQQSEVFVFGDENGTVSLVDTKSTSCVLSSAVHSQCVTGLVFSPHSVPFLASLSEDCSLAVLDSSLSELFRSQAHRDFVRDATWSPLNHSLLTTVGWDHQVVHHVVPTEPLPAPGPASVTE
UniProt P35222: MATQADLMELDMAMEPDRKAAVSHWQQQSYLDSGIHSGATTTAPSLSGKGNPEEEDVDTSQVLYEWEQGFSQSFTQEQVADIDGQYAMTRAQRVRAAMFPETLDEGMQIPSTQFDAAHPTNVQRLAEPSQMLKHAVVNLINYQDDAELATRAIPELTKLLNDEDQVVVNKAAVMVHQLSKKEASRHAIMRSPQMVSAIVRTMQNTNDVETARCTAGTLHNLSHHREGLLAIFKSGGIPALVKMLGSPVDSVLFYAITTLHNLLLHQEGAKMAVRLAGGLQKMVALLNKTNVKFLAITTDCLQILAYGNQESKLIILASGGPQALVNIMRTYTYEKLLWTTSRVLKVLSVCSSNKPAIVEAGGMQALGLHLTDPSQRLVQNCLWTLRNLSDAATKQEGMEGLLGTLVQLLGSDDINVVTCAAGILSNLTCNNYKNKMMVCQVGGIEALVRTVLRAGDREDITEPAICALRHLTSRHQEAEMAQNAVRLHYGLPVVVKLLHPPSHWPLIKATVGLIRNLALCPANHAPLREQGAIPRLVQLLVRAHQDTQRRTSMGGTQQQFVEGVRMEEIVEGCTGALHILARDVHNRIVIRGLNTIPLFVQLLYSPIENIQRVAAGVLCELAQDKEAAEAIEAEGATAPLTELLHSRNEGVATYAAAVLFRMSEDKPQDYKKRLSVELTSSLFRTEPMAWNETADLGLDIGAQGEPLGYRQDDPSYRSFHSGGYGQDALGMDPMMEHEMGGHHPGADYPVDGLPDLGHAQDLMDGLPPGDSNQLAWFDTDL
UniProt Q9Y5Q3: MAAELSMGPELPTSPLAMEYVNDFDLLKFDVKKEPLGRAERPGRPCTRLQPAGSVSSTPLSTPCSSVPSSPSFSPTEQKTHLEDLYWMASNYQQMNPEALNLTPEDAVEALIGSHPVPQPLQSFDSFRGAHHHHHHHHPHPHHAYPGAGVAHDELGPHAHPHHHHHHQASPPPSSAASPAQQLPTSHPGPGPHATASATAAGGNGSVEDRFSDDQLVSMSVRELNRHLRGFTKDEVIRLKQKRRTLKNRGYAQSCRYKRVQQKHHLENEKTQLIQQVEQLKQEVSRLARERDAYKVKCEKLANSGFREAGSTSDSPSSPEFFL

What was measured:
[1] = target: WDR77 (human (endogenous in MCF-10A-ER-Src)) (UniProt Q9BQA1); experiment: co-IP; endogenous proteins; chromatin fraction of transformed (tamoxifen) and non-transformed (ethanol) cells; antibodies against β-catenin, WDR77 and MafB; IgG as control
[2] = target: ß-catenin (human (endogenous in MCF-10A-ER-Src)) (UniProt P35222); experiment: as above
[3] = target: MafB (human (endogenous in MCF-10A-ER-Src)) (UniProt Q9Y5Q3); experiment: as above
recombinant β-catenin = recombinant β-catenin (UniProt P35222); experiment: co-IP; histidine-tagged recombinant proteins generated in E. coli (pET plasmids, BL21), analysed by co-IP

Row | Substance | binding [1] | binding [2] | binding [3] | binding (recombinant β-catenin)
1 | MafB (from UniProt Q9Y5Q3 1-323) | binds | binds |  | 
2 | WDR77 (from UniProt Q9BQA1 1-342) |  | binds | binds | 
3 | recombinant MafB (from UniProt Q9Y5Q3 1-323) |  |  |  | binds
4 | recombinant WDR77 (from UniProt Q9BQA1 1-342) |  |  |  | binds
5 | ß-catenin (from UniProt P35222 1-781) | binds |  | binds | 
